According to article PMC9126915:
No constants are given. Whether binding was seen depends on the method and setting. Some entries that bind do so weakly or less than the wild type.

Chains of the proteins cited; added tags and fusions are not shown. Residues count along the entry.
UniProt P08670: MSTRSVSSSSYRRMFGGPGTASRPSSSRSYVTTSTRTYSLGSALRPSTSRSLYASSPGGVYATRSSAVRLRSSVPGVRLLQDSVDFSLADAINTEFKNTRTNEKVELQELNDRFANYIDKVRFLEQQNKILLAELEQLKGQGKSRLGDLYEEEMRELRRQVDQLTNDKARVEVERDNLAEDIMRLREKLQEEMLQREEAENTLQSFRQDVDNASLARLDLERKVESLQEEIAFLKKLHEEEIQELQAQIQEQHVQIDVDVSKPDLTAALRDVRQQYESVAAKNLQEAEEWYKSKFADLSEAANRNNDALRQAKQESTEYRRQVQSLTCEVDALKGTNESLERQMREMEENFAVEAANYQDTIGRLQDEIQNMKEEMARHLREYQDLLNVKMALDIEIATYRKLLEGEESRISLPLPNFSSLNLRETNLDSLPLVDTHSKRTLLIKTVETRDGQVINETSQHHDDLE
UniProt P35968, residues 20-764: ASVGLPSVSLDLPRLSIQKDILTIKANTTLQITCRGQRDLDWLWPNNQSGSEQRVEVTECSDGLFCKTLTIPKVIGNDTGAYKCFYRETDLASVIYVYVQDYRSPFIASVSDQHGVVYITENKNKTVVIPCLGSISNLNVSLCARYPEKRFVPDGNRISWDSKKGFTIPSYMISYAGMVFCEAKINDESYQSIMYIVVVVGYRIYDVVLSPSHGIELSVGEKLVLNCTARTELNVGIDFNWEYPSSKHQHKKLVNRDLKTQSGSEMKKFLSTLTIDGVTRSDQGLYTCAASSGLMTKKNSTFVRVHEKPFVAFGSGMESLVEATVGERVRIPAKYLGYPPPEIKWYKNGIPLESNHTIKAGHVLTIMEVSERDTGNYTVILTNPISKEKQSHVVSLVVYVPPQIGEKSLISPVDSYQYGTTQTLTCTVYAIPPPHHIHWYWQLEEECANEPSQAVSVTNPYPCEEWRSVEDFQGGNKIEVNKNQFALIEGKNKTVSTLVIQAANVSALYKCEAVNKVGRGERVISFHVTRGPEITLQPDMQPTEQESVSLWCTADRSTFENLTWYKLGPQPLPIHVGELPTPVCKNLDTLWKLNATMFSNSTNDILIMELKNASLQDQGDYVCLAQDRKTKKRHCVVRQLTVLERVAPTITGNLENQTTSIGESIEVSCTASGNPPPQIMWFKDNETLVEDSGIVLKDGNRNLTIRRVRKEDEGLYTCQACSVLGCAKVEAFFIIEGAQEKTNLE

Columns and labels:
[1] = biological target: recombinant human vimentin (human) (UniProt P08670); assay: ELISA; vimentin, VEGF or BSA (2 µg/ml) coated; blocked with 4% non-fat dry milk in PBS; VEGFR2-Fc added at 10 ng/ml to 5 µg/ml; detected with biotinylated goat-anti-human Fc antibody and streptavidin-HRP; both purified
[2] = biological target: recombinant human vimentin (human) (UniProt P08670); assay: far-Western, overlay or dot blot; spot blot, reciprocal: vimentin, VEGFR2 or BSA spotted on nitrocellulose, blocked, incubated with vimentin, VEGFR2 or BSA; bound protein detected with anti-vimentin or anti-VEGFR2 antibodies; both purified
[3] = biological target: VEGFR2-Fc (UniProt P35968); assay: as above
[4] = biological target: VEGFR2-Fc (UniProt P35968); assay: SPR; Biacore T200, CM5 chip; VEGFR2-Fc immobilised by amine coupling (~900 RU); concentration series of vimentin or VEGF injected in PBS, 0.05% Tween-20, pH 7.4, 30 µl/min, 25 °C, 180 s association, 240 s dissociation; double referenced; n = 1; both purified

Row | Substance | binding [1] | binding [2] | binding [3] | binding [4]
1 | VEGFR2-Fc (from UniProt P35968 20-764) (Fc fusion) | binds | binds |  | 
2 | recombinant human vimentin (from UniProt P08670 1-466) |  |  | binds | binds
